Data reported in patent publication US7223850.
Results are given in words; binding and its absence hold for the method and conditions named. Some entries that bind do so weakly or less than the wild type.

T1: RIP used as bait protein in the yeast two-hybrid system, Q13546
T1 chain: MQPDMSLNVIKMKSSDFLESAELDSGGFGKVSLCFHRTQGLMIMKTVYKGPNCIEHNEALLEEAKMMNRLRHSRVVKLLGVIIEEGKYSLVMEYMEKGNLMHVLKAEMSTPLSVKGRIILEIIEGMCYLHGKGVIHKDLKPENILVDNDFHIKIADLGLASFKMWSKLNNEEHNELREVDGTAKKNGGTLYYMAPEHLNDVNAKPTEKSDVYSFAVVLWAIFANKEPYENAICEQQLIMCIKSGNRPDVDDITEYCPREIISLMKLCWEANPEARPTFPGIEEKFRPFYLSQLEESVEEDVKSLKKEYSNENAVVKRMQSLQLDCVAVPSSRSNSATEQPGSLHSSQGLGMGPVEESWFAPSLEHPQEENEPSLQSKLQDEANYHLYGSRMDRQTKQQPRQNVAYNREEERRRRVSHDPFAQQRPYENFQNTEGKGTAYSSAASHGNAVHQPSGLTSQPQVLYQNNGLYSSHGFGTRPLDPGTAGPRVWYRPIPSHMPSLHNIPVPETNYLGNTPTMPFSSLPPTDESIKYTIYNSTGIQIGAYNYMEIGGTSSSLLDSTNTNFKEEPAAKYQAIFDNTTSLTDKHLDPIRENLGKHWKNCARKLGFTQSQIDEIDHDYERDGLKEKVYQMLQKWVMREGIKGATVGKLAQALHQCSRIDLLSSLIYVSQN


Tests used:
[1] = molecular target: RIP used as bait protein in the yeast two-hybrid system (UniProt Q13546); assay: yeast two-hybrid screen, RIP as bait, Hela/Lymphocyte cDNA library
[2] = molecular target: T1, RIP used as bait protein in the yeast …; assay: as above; conditions: remark: other sources report otherwise

Row | binding [1] | binding [2] | Binder
1 | binds | – | TRAF1 cloned from the Hela/Lymphocyte cDNA library in the yeast two-hybrid screen (protein, UniProt Q13077 1-416, looked up) MASSSGSSPRPAPDENEFPFGCPPTVCQDPKEPRALCCAGCLSENPRNGEDQICPKCRGEDLQSISPGSRLRTQEKAHPEVAEAGIGCPFAGVGCSFKGSPQSVQEHEVTSQTSHLNLLLGFMKQWKARLGCGLESGPMALEQNLSDLQLQAAVEVAGDLEVDCYRAPCSESQEELALQHFMKEKLLAELEGKLRVFENIVAVLNKEVEASHLALATSIHQSQLDRERILSLEQRVVELQQTLAQKDQALGKLEQSLRLMEEASFDGTFLWKITNVTRRCHESACGRTVSLFSPAFYTAKYGYKLCLRLYLNGDGTGKRTHLSLFIVIMRGEYDALLPWPFRNKVTFMLLDQNNREHAIDAFRPDLSSASFQRPQSETNVASGCPLFFPLSKLQSPKHAYVKDDTMFLKCIVETST
2 | – | binds | TRAF2 as tested in the yeast two-hybrid system, Q12933 1-501 (protein, UniProt Q12933 1-501, looked up) MAAASVTPPGSLELLQPGFSKTLLGTKLEAKYLCSACRNVLRRPFQAQCGHRYCSFCLASILSSGPQNCAACVHEGIYEEGISILESSSAFPDNAARREVESLPAVCPSDGCTWKGTLKEYESCHEGRCPLMLTECPACKGLVRLGEKERHLEHECPERSLSCRHCRAPCCGADVKAHHEVCPKFPLTCDGCGKKKIPREKFQDHVKTCGKCRVPCRFHAIGCLETVEGEKQQEHEVQWLREHLAMLLSSVLEAKPLLGDQSHAGSELLQRCESLEKKTATFENIVCVLNREVERVAMTAEACSRQHRLDQDKIEALSSKVQQLERSIGLKDLAMADLEQKVLEMEASTYDGVFIWKISDFARKRQEAVAGRIPAIFSPAFYTSRYGYKMCLRIYLNGDGTGRGTHLSLFFVVMKGPNDALLRWPFNQKVTLMLLDQNNREHVIDAFRPDVTSSSFQRPVNDMNIASGCPLFCPVSKMEAKNSYVRDDAIFIKAIVDLTGL
3 | – | binds | RIP cloned from the Hela/Lymphocyte cDNA library in the yeast two-hybrid screen, Q13546 1-671 (enzyme, UniProt Q13546 1-671, looked up) MQPDMSLNVIKMKSSDFLESAELDSGGFGKVSLCFHRTQGLMIMKTVYKGPNCIEHNEALLEEAKMMNRLRHSRVVKLLGVIIEEGKYSLVMEYMEKGNLMHVLKAEMSTPLSVKGRIILEIIEGMCYLHGKGVIHKDLKPENILVDNDFHIKIADLGLASFKMWSKLNNEEHNELREVDGTAKKNGGTLYYMAPEHLNDVNAKPTEKSDVYSFAVVLWAIFANKEPYENAICEQQLIMCIKSGNRPDVDDITEYCPREIISLMKLCWEANPEARPTFPGIEEKFRPFYLSQLEESVEEDVKSLKKEYSNENAVVKRMQSLQLDCVAVPSSRSNSATEQPGSLHSSQGLGMGPVEESWFAPSLEHPQEENEPSLQSKLQDEANYHLYGSRMDRQTKQQPRQNVAYNREEERRRRVSHDPFAQQRPYENFQNTEGKGTAYSSAASHGNAVHQPSGLTSQPQVLYQNNGLYSSHGFGTRPLDPGTAGPRVWYRPIPSHMPSLHNIPVPETNYLGNTPTMPFSSLPPTDESIKYTIYNSTGIQIGAYNYMEIGGTSSSLLDSTNTNFKEEPAAKYQAIFDNTTSLTDKHLDPIRENLGKHWKNCARKLGFTQSQIDEIDHDYERDGLKEKVYQMLQKWVMREGIKGATVGKLAQALHQCSRIDLLSSLIYVSQN
4 | binds | – | TRADD cloned from the Hela/Lymphocyte cDNA library in the yeast two-hybrid screen (protein, UniProt Q15628 1-312, looked up) MAAGQNGHEEWVGSAYLFVESSLDKVVLSDAYAHPQQKVAVYRALQAALAESGGSPDVLQMLKIHRSDPQLIVQLRFCGRQPCGRFLRAYREGALRAALQRSLAAALAQHSVPLQLELRAGAERLDALLADEERCLSCILAQQPDRLRDEELAELEDALRNLKCGSGARGGDGEVASAPLQPPVPSLSEVKPPPPPPPAQTFLFQGQPVVNRPLSLKDQQTFARSVGLKWRKVGRSLQRGCRALRDPALDSLAYEYEREGLYEQAFQLLRRFVQAEGRRATLQRLVEALEENELTSLAEDLLGLTDPNGGLA
